Reference: article PMC4895178 (Scientific Reports, 2016)
One purity is given for all peptides; the source may state it once.

Assay: peptide synthesis
Details: whole synthesis, TFA salts; exchanged for acetates prior to receptor binding studies
With [D-Trp8,L-Dfp11]-SRIF the “final HPLC purity” value was 99% and the isolated yield was 67%. For [L-Dfp6,11,L-Msa7,D-Trp8]-SRIF, the “final HPLC purity” value was 99%. In the case of [L-Dfp6,D-Trp8]-SRIF, the “final HPLC purity” value is reported as 99% and the isolated yield is reported as 43%. In the case of [L-Dfp7,D-Trp8]-SRIF, the “final HPLC purity” value is reported as 99% and the isolated yield is reported as 53%.
